Data taken from ChEMBL document CHEMBL3988442, “University of Dundee, Small-Polar-MMV Screening Library” (2021).

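Whole-parasite assay of Trypanosoma brucei over 72 hours; the read-out is not stated. Tested at 30 µM. Direction is inferred from retests: higher values go with stronger inhibition. Values scatter widely below zero; nearly all retest evidence comes from the higher of the two concentrations used. About 64,000 compounds were tested under these conditions; 1.5% (about 940) showed 50% or more at least once.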

The filed quantity is “Percent Effect” (%). The controls that fix the scale are not given in the record; negative values are as filed. Compounds were drawn at random from those tested, without regard to their results.

| SMILES | percent effect |
|---|---|
| `COc1cc(NC(=O)C2CC(=O)N(c3cccc(Br)c3)C2)ncn1` (stereo not given) | 4.535 |
| `[H][C@@]12C[C@H](C(=O)NCc3ccccc3)[C@@]([H])(CN(C(=O)NC3CCCC3)C1)O2` | -14.2 |
| `COc1c(CNCc2ccccc2Cn2ccnc2)c(C)nn1C` | 1.291 |
| `COCc1nc(CN2CCOC(CN(C)c3cccnn3)C2)cs1` (stereo not given) | -10.8 |
| `Cc1cnn(CCC(=O)N2CCCC(c3cc(C)[nH]n3)C2)c1` (stereo not given) | -54.18 |
| `COc1ncccc1C(=O)N1CCN(C(=O)Cc2ccccn2)CC1` | 13.22 |
| `CCS(=O)(=O)CCNC1CCN(c2nc3ccc(Cl)cc3s2)CC1` | 67.3 |
| `CC(C)(C)OC(=O)N1CSC[C@@H]1C(=O)NCc1ccc(C#N)cc1` | -9.207 |
| `CC(Nc1cccc2c1OCCO2)C(=O)Nc1cccc(C#N)c1` (stereo not given) | -7.018 |
| `[H][C@]12CCCC(N(C)Cc3ccncc3)[C@@]1([H])CN(c1ncccn1)C2` (stereo not given in full) | -41.45 |
| `Cc1ccc(NCCCNC(=O)C2CCCN(Cc3ccco3)C2)nc1` (stereo not given) | -19.83 |
| `Cc1ccccc1C1(CNC(=O)c2cccc(S(C)(=O)=O)c2)CC1` | -9.074 |
| `CN1CCN(Cc2cnc3n2CCN(C(=O)c2cscn2)C3)CC1` | -8.687 |
| `Cc1cnn(C2(C(=O)O)CCN(Cc3oc4ccccc4c3C)CC2)c1` | 3.842 |
| `COC(=O)c1cc(OCC2CCC2)cc(C(=O)N[C@@H]2CCCNC2)c1` | 6.982 |
| `Cc1ccc(S(=O)(=O)NCc2cnn(C)c2)c(F)c1` | -13.03 |
| `COc1c(C)cnc(CN(C)C(=O)c2cccc(NC(N)=O)c2)c1C` | -25.06 |
| `COc1ccc(-c2cc(CNc3ncnc4c3CCNCC4)no2)cc1` | 10.57 |
| `[H][C@]12CC[C@](O)(c3ccc(C)cc3)[C@@]1([H])CN(S(=O)(=O)C(C)C)C2` | -28.53 |
| `O=C1CCCN1CCCC(=O)N1CCCC(c2ccn[nH]2)C1` (stereo not given) | -16.01 |
| `CCN(CC)S(=O)(=O)NC(=O)c1cc(C)n(-c2ccccc2)n1` | -97.89 |
| `CCc1nc(CN2CCN(C(=O)c3cc(C)no3)CC2)cs1` | 17.25 |
| `CC1CCN(C(CNC(=O)Cn2cccn2)c2cccs2)CC1` (stereo not given) | 7.168 |
| `COc1ccc(C(=O)N2CCN(C(=O)c3csc(C(C)C)n3)CC2)cc1` | -48.48 |
| `Cc1ccc(F)c(S(=O)(=O)N2CCCC2c2ccncc2)c1` (stereo not given) | -20 |
| `CC(C)(C)n1cc(C(=O)N2CCCN(Cc3cccs3)CC2)cn1` | -19.09 |
| `O=C(CN1CCC(c2ccnn2CCO)CC1)NCC1CC1` | -16.41 |
| `CC(=O)N1CCOCC2(CN(Cc3ccccn3)CCO2)C1.O=C(O)C(F)(F)F.O=C(O)C(F)(F)F` (stereo not given) | 33.45 |
| `CN(CCCOc1ccccc1Cl)C(=O)CN1CCCCCC1=O` | -89.94 |
| `COc1ccc2[nH]c(C(=O)NCC3(N)CCCC3)cc2c1` | -3.266 |
| `[H][C@@]12CCN(c3ncccn3)C[C@]1([H])[C@@H](CN(C)Cc1cccnc1)OC2` | -31.7 |
| `Cc1nccc(-c2cccc(NCC(=O)N3CCNC3=O)c2)n1` | 34.24 |
| `O=C(O)CSc1nnc(-c2ccco2)n1-c1ccccc1C(F)(F)F` | 0.3359 |
| `COc1c(C)cnc(CN2CCCC2c2noc(C)n2)c1C` (stereo not given) | -41.07 |
| `CC(C)NC(=O)[C@H](C)NC(=O)N1CCN(c2ccc(Cl)cc2)CC1` | 36.61 |
| `CC(O)CN1CCN(C(=O)c2ccc(N(C)C)nn2)CC1` (stereo not given) | 18.13 |
| `CCn1ncc2c1C(COCC1CC1)CN(c1ccncn1)C2.O=C(O)C(F)(F)F.O=C(O)C(F)(F)F` (stereo not given) | -5.077 |
| `Cc1nccn1C1CCCN(C(=O)c2ccc3c(c2)COC3)C1` (stereo not given) | 12.71 |
| `Cc1nc(C)c(C(=O)N2CCCc3c(F)cccc32)o1` | -64.83 |
| `CN(C)c1nc2n(c(=O)n1)CCN2C(=O)Nc1cccc(Cl)c1` | -39.37 |
| `CC(C)NC(=O)Cn1cc(-c2ccccc2)ncc1=O` | -6.708 |
| `O=C(O)C(F)(F)F.O=C(O)C(F)(F)F.[H][C@@]12CCN(CC3CC3)[C@@]1([H])CCN2Cc1ccc2c(c1)OCO2` | -21.44 |
| `COC(=O)c1sccc1CN1CCN(C(=O)c2ccc(C)o2)CC1` | -15.01 |
| `O=C(Cn1ccc2ccccc21)N1CCC(Oc2cnccn2)CC1` | 13.54 |
| `COCCOCC(=O)Nc1ccc(C)cc1F` | 4.849 |
| `CN(C)C[C@@H]1CN(Cc2ccccc2C#N)C[C@@H]1CO` | -12.46 |
| `O=C(Nc1cccnc1)C1CN(C(=O)c2ccc3c(c2)OCO3)C1` | 8.206 |
| `Cc1cccc(NC(=O)N(CCC(F)(F)F)C[C@H](O)CO)c1` | -5.991 |

For reference, 5 entries once more:

{"smiles": "COc1ccc(-c2cc(CNc3ncnc4c3CCNCC4)no2)cc1", "percent effect": 10.57}
{"smiles": "CC(C)NC(=O)[C@H](C)NC(=O)N1CCN(c2ccc(Cl)cc2)CC1", "percent effect": 36.61}
{"smiles": "Cc1ccccc1C1(CNC(=O)c2cccc(S(C)(=O)=O)c2)CC1", "percent effect": -9.074}
{"smiles": "Cc1ccc(F)c(S(=O)(=O)N2CCCC2c2ccncc2)c1", "stereo": "stereo not given", "percent effect": -20}
{"smiles": "Cc1ccc(NCCCNC(=O)C2CCCN(Cc3ccco3)C2)nc1", "stereo": "stereo not given", "percent effect": -19.83}